Results reported in publication PMC12109034.
Results are given in words; binding and its absence hold for the method and conditions named. Binding seen in cells or lysates may run through a third protein. Where a sequence is shown, tags or fusion partners need not be part of it.

Chains of the proteins cited; added tags and fusions are not shown. Residues count along the entry.
UniProt O22476, residues 24-1196: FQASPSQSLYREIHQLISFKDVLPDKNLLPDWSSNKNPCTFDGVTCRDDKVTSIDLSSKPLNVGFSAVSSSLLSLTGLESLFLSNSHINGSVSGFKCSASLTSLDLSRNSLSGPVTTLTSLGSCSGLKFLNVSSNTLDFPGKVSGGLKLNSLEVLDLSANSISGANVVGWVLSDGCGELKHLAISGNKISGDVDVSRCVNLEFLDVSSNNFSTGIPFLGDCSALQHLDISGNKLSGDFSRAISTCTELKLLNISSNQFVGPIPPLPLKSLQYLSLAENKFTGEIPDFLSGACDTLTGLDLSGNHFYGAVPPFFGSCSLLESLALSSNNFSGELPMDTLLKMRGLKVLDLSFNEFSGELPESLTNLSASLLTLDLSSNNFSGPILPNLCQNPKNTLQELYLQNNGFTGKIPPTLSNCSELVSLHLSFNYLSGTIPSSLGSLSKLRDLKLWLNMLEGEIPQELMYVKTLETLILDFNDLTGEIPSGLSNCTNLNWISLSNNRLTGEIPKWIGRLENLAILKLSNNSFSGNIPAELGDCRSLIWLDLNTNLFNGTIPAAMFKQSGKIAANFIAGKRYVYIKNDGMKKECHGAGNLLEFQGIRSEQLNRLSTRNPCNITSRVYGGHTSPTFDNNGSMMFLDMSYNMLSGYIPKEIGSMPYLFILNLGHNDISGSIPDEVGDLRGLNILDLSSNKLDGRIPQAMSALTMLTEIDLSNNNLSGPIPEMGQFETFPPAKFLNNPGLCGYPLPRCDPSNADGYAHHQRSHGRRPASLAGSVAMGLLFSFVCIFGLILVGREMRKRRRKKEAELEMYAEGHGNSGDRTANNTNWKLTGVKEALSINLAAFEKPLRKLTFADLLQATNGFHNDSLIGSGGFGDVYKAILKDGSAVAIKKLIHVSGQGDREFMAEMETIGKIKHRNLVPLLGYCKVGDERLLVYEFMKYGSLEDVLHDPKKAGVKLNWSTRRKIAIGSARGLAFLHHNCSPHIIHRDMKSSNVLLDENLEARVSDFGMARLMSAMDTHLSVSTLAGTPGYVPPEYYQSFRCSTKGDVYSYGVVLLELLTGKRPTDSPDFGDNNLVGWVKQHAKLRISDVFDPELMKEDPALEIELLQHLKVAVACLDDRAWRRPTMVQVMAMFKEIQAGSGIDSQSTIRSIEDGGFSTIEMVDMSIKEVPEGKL

Target: BRI1-cYFP (UniProt O22476)
Experiment: split reporter; BiFC with nYFP and cYFP fusions in N. benthamiana leaf epidermal cells, confocal microscopy two days after co-infiltration

binding: no binding
B1: At-I2-nYFP (protein, UniProt Q9LTK0 1-191)
chain: MTEPKRGRVQWDEANIVEIESNKPVRQKITEPKTPYHPMMDDDGSLSPRGRAFDECVDDMQRAEELRNVLNDAAASSSRNSSQGSGGGGWSSSDEEEEEADPMDQDEEGSGSGKNERFNAHRKAHYDEFRKVKELRSSGSFYEEEEEEDDGAKGSKSETTTNSRHTKGGNKELDATKTVSGTSSSSSPELI
